Earlier results as cited in patent publication US7910729B2, “Azulenyl nitrone spin trapping agents, methods of making and using same” (The Florida International University Board of Trustees, priority 2004, dated 2011).
Some of these results come from one statement about several compounds together. At least one compound was matched to its structure with a doubt left.

Conditions: cited from earlier work

| SMILES | oxidative potentials |
| --- | --- |
| CC1(C)CCC=[N+]1[O-] [DMPO] | 1.5-2.0 V |
| CC(C)(C)/[N+]([O-])=C/c1cc[n+]([O-])cc1 [POBN] | 1.5-2.0 V |
